Here are results for 51 compounds from PubChem BioAssay AID1745846 (National Center for Advancing Translational Sciences (NCATS), 2022).

SMILES strings stand for the structures. About 30 (2%) of roughly 1,400 compounds were called active. Roughly 15% stayed inconclusive and do not appear here. Calls follow the shape of the dose curve; as a rule, active = well fitted inhibition curve with a large enough effect; inconclusive = small, poorly fitted or top-dose-only effect; inactive = flat fitted curve, though single readings scatter. This is one part of the list.
% is scaled to controls: 0 for no effect and ±100 for the full control effect.

A short description of this experiment: Firefly Luciferase Counterscreen for Inhibitors of ATXN expression. Conditions: luminescence; series mostly up to 57.5 µM; activity change, negative = inhibition: at the top concentration. Put shortly: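 Recombinant firefly luciferase at 10 nM final in 50 mM Tris pH 7.5, 10 mM MgCl2, 0.05% BSA, 0.01% Tween20 with substrate; compounds up to 57 uM final, 10 min room temperature, end-point luminescence. Buffer-only wells define 100% inhibition.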
`CC1(C)Cc2c(sc(NC(=O)c3ccc(C(=O)c4ccccc4)cc3)c2C(N)=O)C(C)(C)N1`: the “activity change, negative = inhibition” value was inactive: -0.284%. To `CC(=O)c1c(C)oc2ccc(N(C(C)=O)S(=O)(=O)c3cccc4cccnc34)cc12` belongs inactive: -2.27%; to `S=C(NCc1cccnc1)Nc1ccc(Oc2ccc(Cl)cc2)cc1`, inactive: -0.796%; to `Cc1ccc(C)c(OCCCC(=O)Nc2nccs2)c1`, inactive: -2.91%. To `O=[N+]([O-])c1cc(CN2CCN(c3ccccc3)CC2)c(O)c2ncccc12` belongs inactive: -6.1%. As for `COc1cccc(/C=N/Nc2ncc(C(F)(F)F)cc2Cl)c1O`, the figure is inactive: -7.18%.

Regarding `Cc1noc2ncnc(N3CCN(c4cccc(Cl)c4)CC3)c12`, the “activity change, negative = inhibition” value was inactive: 2.97%. On to `Cn1cc(C(=O)c2ccc(Cl)cc2Cl)cc1C(=O)N/N=C(\N)COc1ccc(Cl)cc1`, for which the “activity change, negative = inhibition” value is inactive: -0.139%. As for `Cc1sc2nc(CN3CCCC3)nc(N3CCC(C(N)=O)CC3)c2c1C`, the figure is inactive: -0.83%. For `O=C(c1cccc(Cl)c1)c1nn(-c2ccccc2)c(=O)cc1C(F)(F)F`, the “activity change, negative = inhibition” value was inactive: -3.02%. To `CC(C)C1Cc2c(sc3[nH]c(=S)n(Cc4ccccc4)c(=O)c23)CO1` (stereo unspecified) belongs inactive: -14.2%; to `NS(=O)(=O)c1ccc(CCNC(=O)c2cc(-c3ccccn3)nc3ccc(Br)cc23)cc1`, inactive: 1.91%.

Take `CCOC(=O)c1ccc(NC(=O)C2CCCN(S(=O)(=O)c3ccc(F)cc3)C2)cc1` (stereo unspecified): the “activity change, negative = inhibition” value is inactive: -0.445%.

Turning to `CCN(CC)S(=O)(=O)c1ccc(N/N=C/c2ccc(O)cc2O)nc1`, the “activity change, negative = inhibition” value is inactive: 3.3%. `Cc1ccc(OCCCC(=O)NNC(=O)c2ccccn2)cc1`: the “activity change, negative = inhibition” value was inactive: -1.95%. To `Cc1csc2ncnc(NC3CCN(Cc4ccccc4)CC3)c12` belongs inactive: 1.59%; to `Cc1c([N+](=O)[O-])cc(C(=O)Nc2ccc(Cc3ccncc3)cc2)cc1[N+](=O)[O-]`, inactive: -9.2%. As for `CN(C)CCCNC(=O)/C=C/c1ccc(OCc2c(F)cccc2Cl)cc1`, the figure is inactive: -5.2%; as for `Cc1cnc(NC(=O)CCCc2nc3ccccc3s2)s1`, inactive: -11.5%; as for `Cc1nc2cc(NC(=O)CSc3nc4c(C)cccc4cc3C#N)ccc2s1`, inactive: 1.43%.

Turning to `CSCC[C@H](NC(=O)OC(C)(C)C)C(=O)N/N=C/c1cccc2cccnc12`, the “activity change, negative = inhibition” value is inactive: -2.18%. `COc1ccc(N2CCN(C(=O)c3cc4c(C)nc5ccccc5c4o3)CC2)cc1`: the “activity change, negative = inhibition” value is inactive: -3.21%. For `COc1ccc(-c2cc(C3CCN(c4ccc(C(C)=O)cc4[N+](=O)[O-])CC3)[nH]n2)cc1`, the “activity change, negative = inhibition” value was inactive: -6.65%. To `CN(C)C(=O)CSc1nc(-c2ccccc2)nc2c1CCCC2` belongs inactive: 0.0311%; to `Cc1cccc2c1-c1sc(C(=O)Nc3ccccc3N3CCN(C)CC3)cc1CO2`, inactive: 0.0801%; to `CCOc1ccc(-n2c(-c3ccccc3)c[n+]3c2CCCCC3)cc1`, inactive: -2.5%. Turning to `O=C(c1ccoc1)N1CCN(c2cc(-c3cccnc3)nc3cc(-c4cccc(Cl)c4)nn23)CC1`, the “activity change, negative = inhibition” value was inactive: -16.4%.

Consider `C=CCn1c(COc2ccccc2)nnc1SCC(=O)N/N=C/c1cc(Cl)ccc1O`, for which the “activity change, negative = inhibition” value is inactive: -4.62%. In the case of `CC[n+]1c(C=C2C=C(C)OC(C)=C2)sc2ccccc21`, the “activity change, negative = inhibition” value was inactive: -1.99%. In the case of `NNc1ccc(Cc2ccc(Cl)cc2Cl)nn1`, the “activity change, negative = inhibition” value was inactive: -4.55%. For `CC1(C)Cc2c(c(-c3ccco3)nc3sc4c(NCCN5CCOCC5)ncnc4c23)CO1`, the “activity change, negative = inhibition” value was inactive: -2.09%. As for `CCOc1ccc(CN(C)c2nc(-c3cccnc3)nc3ccccc23)cc1OC`, the figure is inactive: -9.84%. For `O=[N+]([O-])c1ccc(NC(c2ccccc2)c2ccc3cccnc3c2O)cc1` (stereo unspecified), the “activity change, negative = inhibition” value is inactive: 0.892%. To `O=C1c2cccc3c([N+](=O)[O-])ccc(c23)C(=O)N1c1ccc(Cl)cn1` belongs inactive: -1.44%. In the case of `Clc1cccc(-c2nc(NCc3cccnc3)c3ccccc3n2)c1`, the “activity change, negative = inhibition” value was inactive: -7.42%. Turning to `O=C(NCc1ccccc1)C1=C[C@@H](c2csc3ccccc23)C[C@@H](OCCCCO)O1`, the “activity change, negative = inhibition” value was inactive: -2.89%. As for `COc1ccc(O)c(/C=N/NC(=O)c2ccc(N3CCCC3=O)cc2)c1`, the figure is inactive: -5.46%. As for `C(=N\Nc1ccc2nncn2n1)/c1ccccn1`, the figure is inactive: -5.45%. To `OC[C@@H]1CN(Cc2ccc(-c3ccccc3)cc2)C[C@H](n2cnc3c(NC4CCC4)ncnc32)O1` belongs inactive: -0.859%; to `O=C1c2ccccc2NC(c2ccc(-c3cccc([N+](=O)[O-])c3)o2)N1O` (stereo unspecified), inactive: -18.4%; to `NC(Cc1ccc(Cl)cc1)c1csc(Nc2nccc(C(F)(F)F)n2)n1` (stereo unspecified), inactive: 0.694%.

For `CC(=O)N1CCN(c2ccc(Oc3ccc([N+](=O)[O-])c(C(F)(F)F)c3)cc2)CC1`, the “activity change, negative = inhibition” value is inactive: 0.994%. Turning to `O=C1C=CCC(/C=C/c2ccccc2)O1` (stereo unspecified), the “activity change, negative = inhibition” value is inactive: 0.0453%. As for `CCCCC(=O)NC(c1ccc(Cl)cc1)c1ccc2cccnc2c1O` (stereo unspecified), the figure is inactive: -2.91%. Consider `CC(=O)c1sc(C(C)(C)C)cc1NC(=O)/C=C/C(=O)O`, for which the “activity change, negative = inhibition” value is inactive: -7.46%.

Take `COc1ccc(C(=O)NNC(=S)NC(=O)C(C)(C)C)cc1`: the “activity change, negative = inhibition” value was inactive: -7.32%. To `O=C(Oc1c(CN2CCOCC2)cc(Cl)c2cccnc12)c1ccccc1F` belongs inactive: -1.47%; to `COc1ccc(C(NCC(=O)NC(C)c2ccc(Cl)cc2)c2ccccc2)cc1` (stereo unspecified), inactive: -3.08%. Regarding `O=C(N/N=C/c1cc(Br)ccc1OC(=O)c1ccc(Br)cc1)c1ccncc1`, the “activity change, negative = inhibition” value was inactive: -15.6%.

On to `C=CCN(C(=O)CSc1nc2c(sc3ccccc32)c(=O)n1CCN(CC)CC)c1ccccc1`, for which the “activity change, negative = inhibition” value was inactive: -0.689%. As for `C=C(C)Cn1c(SCC(=O)N/N=C/c2c(O)ccc3ccccc23)nc2ccccc2c1=O`, the figure is inactive: -8.6%.
